# This is one part of the list. These are further read-outs of the screen, such as a control signal, another cell line or another target. No call is given for them. The list favours compounds with an active or inconclusive main result. Words in brackets tell the shape of the fitted curve; partial curves, single points and poor fits give uncertain potencies.
# Assay: qHTS Assay to Find Inhibitors of Chronic Active B-Cell Receptor Signaling
# Settings: ABC-DLBCL IkBa-CBG/CBR reporter, luminescence ratio (green luciferase fused to IkBa over red control in TMD8 lymphoma cells), 4 h
# Summary of the method: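 TMD8 human ABC-DLBCL cells with doxycycline-inducible IκBα–green luciferase fusion and unfused red luciferase, in 0.5% FBS medium; compounds up to 46 uM, 4 h at 37C. Green/red luminescence ratio, filter-overlap corrected, fitted to concentration-response curves.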
# [1] = measured here: CBR red luminescence, cell number
# [2] = measured here: IkBa-CBG green luminescence
Structure (SMILES),AC50 [1],AC50 [2]
COc1c(Cl)cc(Cl)cc1CNCCNCC(C)O (stereo unspecified),"1 µM [falling, full curve, poor fit]",–
CC(C)CNC(=O)/C=C/C=C/c1ccc2c(c1)OCO2,"20.6 µM [falling, single point]",–
CC(/C=N/NC(=O)c1cc(C2CC2)[nH]n1)=C\c1ccccc1,"3.55 µM [rising, partial curve, poor fit]",–
S=C1Nc2cc(Cl)ccc2Sc2ccccc21,"23.1 µM [rising, single point]",–
COc1cc(OC)cc(-c2nc(-c3cccs3)no2)c1,"6.31 µM [rising, partial curve, poor fit]",–
CC(=O)NCCC(=O)Nc1nc(-c2c[nH]c3ccccc23)cs1,"35.5 µM [falling, single point]",–
O=C(COC(=O)Cc1ccc(Cl)cc1)NCCc1ccccc1,"14.6 µM [rising, single point]",–
O=C(O)c1ccc(-c2nc(-c3ccccc3Cl)cs2)cc1,"0.501 µM [falling, full curve, poor fit]",–
O=C(c1ccco1)N1CCN(S(=O)(=O)c2c(Cl)cccc2Cl)CC1,"3.16 µM [rising, partial curve, poor fit]",–
COc1ccc(OC)c(NC(=O)c2ccc(-n3cccn3)nc2)c1,"1.12 µM [falling, full curve, poor fit]",–
O=C(Cc1c[nH]c2ccccc12)Nc1nc2ccccc2[nH]1,"14.1 µM [falling, partial curve]",–
CC1CC(C)CN(CCC(=O)Nc2ccc3c(c2)CCC3)C1 (stereo unspecified),"6.31 µM [rising, single point]",–
N#Cc1ccc(NC(=O)c2cc(=O)c3ccccc3o2)cc1,"0.794 µM [rising, full curve, poor fit]",–
O=C(Nc1ccc(F)cc1)c1ccc(S(=O)(=O)N2CCCC2)cc1,"1.41 µM [rising, partial curve, poor fit]",–
Cc1ccc2cc(C(c3nnnn3C3CCCC3)N3CCN(c4ccc(F)cc4)CC3)c(=O)[nH]c2c1 (stereo unspecified),"10.3 µM [rising, partial curve, poor fit]",–
C=CCn1c(=O)c2ccccc2n2c(Sc3nnnn3-c3ccccc3)nnc12,"3.98 µM [falling, single point]",–
COc1ccc(Br)c(-c2nc(CS(=O)(=O)c3ccc(F)cc3)no2)c1,"1.58 µM [rising, partial curve, poor fit]",–
Cc1ccc(CN2C(=NC(=O)CCC(=O)O)SC3CS(=O)(=O)CC32)cc1 (stereo unspecified),"6.31 µM [falling, full curve, poor fit]",–
O=C(NCCc1ccccc1)c1ccc2c(c1)S(=O)(=O)N=C1CCCCCN12,"13 µM [rising, partial curve, poor fit]",–
O=C(Nc1ccccc1C(=O)N1CCOCC1)c1ccc(F)cc1,"29.1 µM [rising, single point]",–
CCc1nc(Nc2ccc3c(c2)OCCO3)c2oc3ccccc3c2n1,"6.51 µM [falling, full curve]",–

Structure (SMILES),AC50 [1],AC50 [2]
O=C(c1ccco1)N1CCN(C(=O)C2CCCN(S(=O)(=O)c3cccc4nsnc34)C2)CC1 (stereo unspecified),"32.6 µM [falling, single point]",–
COc1cc(/C=C(/C#N)c2nc3ccccc3[nH]2)ccc1OCc1ccc(C(=O)O)o1,"12.6 µM [falling, partial curve, poor fit]",–
C=CCn1c(SCC(=O)NCC2CCCO2)nc2scc(-c3ccccc3)c2c1=O (stereo unspecified),"35.5 µM [falling, single point]",–
O=C(O)c1ccc2c(=O)n(-c3ccccc3)c(=S)[nH]c2c1,"7.94 µM [falling, partial curve]",–
O=C(N/N=C/c1ccc(-c2ccc(Br)cc2)o1)c1ccc2c(c1)OCO2,"22.4 µM [falling, single point]",–
O=C(N/N=C/c1ccccn1)c1ccc(S(=O)(=O)N2CCCCCC2)cc1,"39.8 µM [falling, partial curve, poor fit]",–
O=C(Cn1nc(Cl)nc1Cl)c1cc2ccccc2oc1=O,"17.8 µM [falling, single point]",–
Cc1ccc(S(=O)(=O)N(C)c2ccc(C(=O)NCCc3ccccc3)cc2)cc1,"14.1 µM [rising, partial curve, poor fit]",–
COC(=O)c1ccc(CC(=O)c2ccc(O)cc2O)o1,"6.31 µM [falling, single point]",–
CCOC(=O)c1nnc(-c2ccccc2)nc1Oc1ccccc1Cl,"25.9 µM [falling, single point]",–
Cc1cc(C(=O)COC(=O)c2n[nH]c3ccccc23)c(C)n1C,"1.84 µM [falling, full curve]","2.91 µM [rising, partial curve, poor fit]"
COC(=O)c1ccc(NS(=O)(=O)c2cc(C)ccc2OC)cc1,"0.0058 µM [falling, full curve, poor fit]",–
CN1CCN(C(=S)SCC(=O)Nc2nc(-c3ccccc3)c(-c3ccccc3)o2)CC1,"1.46 µM [falling, full curve]",–
CN1C(=O)C2C(c3ccc(N(C)C)cc3)=NN(Cc3ccccc3)C2C1=O (stereo unspecified),"11.2 µM [rising, partial curve, poor fit]",–
CSCC[C@H](NC(=O)NCCc1ccc(F)cc1)C(=O)O,"7.08 µM [rising, partial curve, poor fit]",–
CCOC(=O)c1nc(Nc2ccc(C(=O)OC)cc2)c2ccccc2n1,"2.82 µM [falling, full curve]",–
Cc1nc(NC(=S)NC(=O)c2cncc(Br)c2)ccc1Br,"6.31 µM [rising, partial curve, poor fit]",–
CC(=O)Nc1ccc(NC(=O)COc2ccccc2C(=O)Nc2cccc(Cl)c2Cl)cc1,"5.17 µM [rising, partial curve]",–
CC(C)OCCCNC(=O)CCN1C(=O)COc2ccccc21,"3.66 µM [rising, partial curve]",–
Cc1ccc(C(=O)Nc2cccc(NC(=O)c3cccs3)c2)c(C)c1,"5.62 µM [falling, partial curve]",–
COc1cc(NS(=O)(=O)c2ccc(C)cc2)c2ncccc2c1,"4.11 µM [falling, single point]","5.8 µM [falling, single point]"

Structure (SMILES),AC50 [1],AC50 [2]
Cc1ccc(/C=N/NC(=O)c2ccc(OC3CCCC3)cc2)o1,"35.5 µM [falling, single point]",–
N#C/C=C(/N)c1ccc(Br)cc1,"16.4 µM [falling, partial curve, poor fit]","10.3 µM [rising, partial curve, poor fit]"
O=C(Nc1ccc(Oc2cccnc2)cc1)C1CCN(Cc2cc(Cl)ccc2O)CC1,"35.5 µM [falling, single point]",–
Nc1nc(Nc2ccccc2Cl)cc(=O)[nH]1,"35.5 µM [falling, partial curve, poor fit]",–
COCCNC(=O)c1cccc(Nc2nc(-c3ccccc3)c3cc(Cl)ccc3n2)c1,"4.61 µM [falling, single point]",–
Cc1ccsc1C(=O)NNC(=O)c1csc(N2CCOCC2)n1,"6.51 µM [falling, single point]",–
CC1(C)OC(=O)N(c2ccccc2)C12C=Cc1cc(Br)ccc1O2 (stereo unspecified),"29.1 µM [falling, single point]",–
Cc1ccsc1CNCc1cc(Cl)ccc1O,"2.06 µM [rising, partial curve, poor fit]",–
CC1CCCC(NC(=O)c2cc(S(=O)(=O)N3CCCCC3)ccc2Cl)C1C (stereo unspecified),"16.4 µM [falling, single point]",–
CCCC[C@]12Cc3cc(C#N)ccc3C(O1)c1c(cc(C)n(Cc3ccccc3)c1=O)O2,"1.12 µM [falling, partial curve, poor fit]",–
COc1ccc(C(=O)NC(=S)NNC(=O)c2ccc(O)cc2)cc1[N+](=O)[O-],"0.251 µM [falling, full curve]",–
CN(CC(=O)Nc1ccc(Cl)cc1)CC(=O)Nc1ccc(F)c(F)c1F,"9.2 µM [falling, partial curve, poor fit]",–
COc1cccc2cc(-c3nc(-c4cccs4)cs3)c(=O)oc12,"6.31 µM [falling, partial curve, poor fit]",–
Cc1ccccc1N=C1c2ccccc2C(=O)C1[N+](=O)[O-] (stereo unspecified),"20 µM [falling, single point]",–
C/C(=N\NS(=O)(=O)c1ccc(C)c([N+](=O)[O-])c1)c1cc2ccccc2o1,"16.4 µM [falling, partial curve, poor fit]",–
O=C1CC[C@H](N2C(=O)c3ccccc3C2=O)C(=O)N1,"25.9 µM [rising, partial curve, poor fit]",–
Cc1cc2ccccc2c(=O)n1CC(=O)NCC(=O)N1CCCC(C)C1 (stereo unspecified),"29.1 µM [rising, single point]",–
CCc1ccc(NC(=O)CN2C(=O)C(=O)N(Cc3ccccc3)C2=O)cc1,"15.8 µM [rising, partial curve, poor fit]",–
Cc1noc(C)c1COc1cccc(C(=O)NCCc2c[nH]c3ccccc23)c1,"3.55 µM [falling, full curve]",–
O=C(Nc1ccc(F)c(Cl)c1)c1cc(-c2ccco2)on1,"7.94 µM [falling, partial curve]",–
Cc1nsc(Nc2ccc([N+](=O)[O-])cc2)c1C#N,"10 µM [rising, partial curve, poor fit]",–

# Sorted by length of the SMILES (high to low): some entries from above
Structure (SMILES),AC50 [1],AC50 [2]
CN1CCN(C(=S)SCC(=O)Nc2nc(-c3ccccc3)c(-c3ccccc3)o2)CC1,"1.46 µM [falling, full curve]",–
O=C(Nc1ccc(F)c(Cl)c1)c1cc(-c2ccco2)on1,"7.94 µM [falling, partial curve]",–
COc1c(Cl)cc(Cl)cc1CNCCNCC(C)O (stereo unspecified),"1 µM [falling, full curve, poor fit]",–

# — PubChem BioAssay AID493014 (National Center for Advancing Translational Sciences (NCATS), 2011)
